PubChem BioAssay AID302 (DTP/NCI, 2004)
The list shows only some results of the screen, not a fair sample: it gathers tests that were run many times, whatever their T/C, doses with no T/C, and many T/C values between a quarter and a half above the control. Further doses and runs are listed elsewhere. T/C gives the treated animals as a percentage of the vehicle group. Some entries give survivors of the animals treated and no T/C: the source files T/C as zero there, which appears to mark a toxic dose or a test without result, not a measured value. Some doses without a T/C left all or most animals alive at the check, yet need not have been tolerated: the source hardly ever lists a survival T/C far under the control, and the zero likely stands for such cases as well. Survivors were counted at the toxicity check, usually on the fifth day, unless a day is given; later deaths do not show. Schedule codes are those of the source, taken here to give the interval after Q, in days (D) or hours (H), and the number of doses after X. Some molecules as drawn cover several salts, stereoisomers or complexes of the source; a dose is that of the sample tested. Some doses were run more than once; the values are given in rising order. Where survival is the endpoint, the PubChem record calls one and a half times the control and up active, and a quarter to a half above the control has no call in these data; cut-offs in other NCI protocols can differ. Some T/C values carry the count of animals alive at the toxicity check (mostly the fifth day); where none is given, no animal had died by that day.

Test system: BALB/c mice, Madison 109 lung carcinoma i.m., survival
Assay: NCI In Vivo Anticancer Drug Screen. Data for tumor model Madison 109 Lung Carcinoma (intramuscular) in BALB/CM mice
Conditions: T/C endpoint: median survival time, schedule: Q01DX009 (ip), higher T/C = longer survival
Method: The antitumor activity of compounds was measured in mice bearing transplantable tumors. Survival or tumor size were measured and the results are expressed as the measurement made in the treated group (T) divided by the measurement made in the vehicle treated control group (C). The tumor model used in this assay is Madison 109 Lung Carcinoma (intramuscular) in BALB/CM mice

[1] = dose: 200.0 mg/kg/injection, vehicle: saline with Tween-80
[2] = dose: 400.0 mg/kg/injection, vehicle: saline with Tween-80
[3] = dose: 16.0 mg/kg/injection, vehicle: saline with Tween-80

Question: For `NC(C/[N+]([O-])=N/O)C(=O)O` (stereo not given), which survivor count (dose: 62.0 mg/kg/injection, vehicle: saline with Tween-80) is on record?
Answer: 6 of 8

Question: And the survivor count (dose: 64.0 mg/kg/injection, vehicle: saline)?
Answer: 8 of 8

Question: What about the survivor count (dose: 75.0 mg/kg/injection, vehicle: saline) of the same compound?
Answer: 8 of 8

Question: And the survivor count (dose: 125.0 mg/kg/injection, vehicle: saline with Tween-80)?
Answer: 8 of 8

Question: What about the survivor count (dose: 150.0 mg/kg/injection, vehicle: saline) of the same compound?
Answer: 7 of 8

Question: And the survivor count (dose: 225.0 mg/kg/injection, vehicle: saline with Tween-80)?
Answer: 4 of 8

Question: What about the survivor count (dose: 300.0 mg/kg/injection, vehicle: saline) of the same compound?
Answer: 4 of 8

Question: And the survivor count (dose: 450.0 mg/kg/injection, vehicle: saline with Tween-80)?
Answer: 6 of 8

Question: What about the survivor count (dose: 600.0 mg/kg/injection, vehicle: saline) of the same compound?
Answer: 4 of 8

Question: And the survivor count (dose: 900.0 mg/kg/injection, vehicle: saline with Tween-80)?
Answer: 3 of 8

Question: And the survivor count (dose: 1200.0 mg/kg/injection, vehicle: saline)?
Answer: 4 of 8

Question: For `CN(C)/N=N/c1nc[nH]c1C(N)=O`, which survivor count [1] is on record?
Answer: 8 of 8

Question: What about the survivor count [2] of the same compound?
Answer: 8 of 8

Question: Which results are given for `CN(C)C=O`?
Answer: T/C (dose: 50.0 mg/kg/injection, vehicle: saline): 127 % of control; T/C (dose: 200.0 mg/kg/injection, vehicle: saline): 127 % of control; T/C (dose: 800.0 mg/kg/injection, vehicle: saline): 145 % of control [7 of 8 alive]; survivor count (dose: 1600.0 mg/kg/injection, vehicle: saline): 3 of 8; survivor count (dose: 3200.0 mg/kg/injection, vehicle: saline): 2 of 8

Question: `O=C1c2ccccc2C(=O)c2c(NCCNCCO)ccc(NCCNCCO)c21` was tested. Which T/C [3] did it give?
Answer: 126 % of control

Question: What about the survivor count [3] of the same compound?
Answer: 8 of 8

Question: What about the survivor count (dose: 16.0 mg/kg/injection, vehicle: saline) of the same compound?
Answer: 8 of 8

Question: What about the survivor count (dose: 32.0 mg/kg/injection, vehicle: saline with Tween-80) of the same compound?
Answer: 7 of 8 and 8 of 8

Question: And the survivor count (dose: 32.0 mg/kg/injection, vehicle: saline)?
Answer: 8 of 8

Question: And the survivor count (dose: 64.0 mg/kg/injection, vehicle: saline with Tween-80)?
Answer: 3 of 8 and 5 of 8

Question: `COc1cc2c(c(OC)c1OC)-c1ccc(OC)c(=O)cc1[C@@H](NC(C)=O)CC2` was tested. Which survivor count (dose: 2.0 mg/kg/injection, vehicle: saline) did it give?
Answer: 2 of 8

Question: With `O=C1C2(Cl)C3(Cl)C4(Cl)C(Cl)(Cl)C5(Cl)[C@]3(Cl)C1(Cl)[C@]5(Cl)C24Cl` (stereo not given in full) as the compound, how does the survivor count (dose: 25.0 mg/kg/injection, vehicle: saline with Tween-80) read?
Answer: 8 of 8

Question: And the survivor count (dose: 50.0 mg/kg/injection, vehicle: saline with Tween-80)?
Answer: 0 of 8

Question: And the survivor count (dose: 100.0 mg/kg/injection, vehicle: saline with Tween-80)?
Answer: 0 of 8

Question: What about the survivor count [1] of the same compound?
Answer: 0 of 8

Question: And the survivor count [2]?
Answer: 0 of 8
